These are yes or no findings as the source states them, for the method shown. Some results given as binding are weak or reduced against the parent protein; the word gives no strength. Tags and fused reporters may be left off the sequences shown.
Biological target: LexA fusion protein containing the cytoplasmic tail of the mouse CD40 receptor (from residue 219 to the COOH-terminus) (mouse) (UniProt P0A7C2+P27512)
Assay: yeast two-hybrid, quantitative β-galactosidase expression

By UniProt entry, the sequences of proteins in these tests, tags left out. Where a name states a change or a piece, a line headed by the entry shows the natural chain unless it says otherwise.
UniProt P0A7C2: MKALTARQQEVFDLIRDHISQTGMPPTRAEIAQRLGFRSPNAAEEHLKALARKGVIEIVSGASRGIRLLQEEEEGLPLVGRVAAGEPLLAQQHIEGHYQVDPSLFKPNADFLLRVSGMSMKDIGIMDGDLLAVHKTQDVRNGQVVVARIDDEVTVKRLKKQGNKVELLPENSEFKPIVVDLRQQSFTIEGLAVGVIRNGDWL
UniProt P27512: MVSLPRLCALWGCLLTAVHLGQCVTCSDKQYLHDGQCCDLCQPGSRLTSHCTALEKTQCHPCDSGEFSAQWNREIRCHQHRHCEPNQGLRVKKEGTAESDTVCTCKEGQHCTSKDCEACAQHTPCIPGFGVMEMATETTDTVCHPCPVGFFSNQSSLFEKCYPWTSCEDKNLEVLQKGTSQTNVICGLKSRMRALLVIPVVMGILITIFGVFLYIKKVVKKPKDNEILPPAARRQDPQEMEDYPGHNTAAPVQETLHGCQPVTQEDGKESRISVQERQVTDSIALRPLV

binding: binds
B1: full TRAF domain of CRAF1 (residues 356 to 562) as transcriptional activation domain fusion in yeast (protein, not shown: large carriers)
chain: LQNRVTELESVDKSAGQAARNTGLLESQLSRHDQTLSVHDIRLADMDLRFQVLETASYNGVLIWKIRDYKRRKQEAVMGKTLSLYSQPFYTGYFGYKMCARVYLNGDGMGKGTHLSLFFVIMRGEYDALLPWPFKQKVTLMLMDQGSSRRHLGDAFKPDPNSSSFKKPTGEMNIASGCPVFVAQTVLENGTYIKDDTIFIKVIVDTS

— patent publication US6822070
